According to article PMC6117920:
These are yes or no findings as the source states them, for the method shown. For some assays here: Binding seen in cells or lysates may run through a third protein. Some binding calls cover weakened binding; strength is not graded here.

T1: CD44v6 peptide (human)
T1 sequence (peptide): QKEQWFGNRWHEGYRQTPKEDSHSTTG

B1: IL-13Rα2 (endogenous, gastric cancer cells), Q14627 27-380 (receptor)
chain: DTEIKVNPPQDFEIVDPGYLGYLYLQWQPPLSLDHFKECTVEYELKYRNIGSETWKTIITKNLHYKDGFDLNKGIEAKIHTLLPWQCTNGSEVQSSWAETTYWISPQGIPETKVQDMDCVYYNWQYLLCSWKPGIGVLLDTNYNLFYWYEGLDHALQCVDYIKADGQNIGCRFPYLEASDYKDFYICVNGSSENKPIRSSYFTFQLQNIVKPLPPVYLTFTRESSCEIKLKWSIPLGPIPARCFDYEIEIREDDTTLVTATVENETYTLKTTNETRQLCFVVRSKVNIYCSDDGIWSEWSDKQCWEGEDLSKKTLLRFWLPFGFILILVIFVTGLLLRKPNTYPKMIPEFFCDT
B2: recombinant human IL-13Rα2 ECD (domain or fragment, UniProt Q14627 27-343)
chain: DTEIKVNPPQDFEIVDPGYLGYLYLQWQPPLSLDHFKECTVEYELKYRNIGSETWKTIITKNLHYKDGFDLNKGIEAKIHTLLPWQCTNGSEVQSSWAETTYWISPQGIPETKVQDMDCVYYNWQYLLCSWKPGIGVLLDTNYNLFYWYEGLDHALQCVDYIKADGQNIGCRFPYLEASDYKDFYICVNGSSENKPIRSSYFTFQLQNIVKPLPPVYLTFTRESSCEIKLKWSIPLGPIPARCFDYEIEIREDDTTLVTATVENETYTLKTTNETRQLCFVVRSKVNIYCSDDGIWSEWSDKQCWEGEDLSKKTLLR

Columns and labels:
[1] = biological target: CD44 (endogenous, gastric cancer cells) (human (endogenous in AGS and MGC803)), P16070; test: co-IP; lysates of AGS and MGC803 cells in IP buffer (20 mM Tris pH 7.5, 150 mM NaCl, 1% TritonX-100, 1 mM EDTA); control IgG or primary antibody with GammaBind Plus Sepharose, 4°C overnight; western blot; conditions: remark: other sources report otherwise
CD44v6 peptide (human) = biological target: T1, CD44v6 peptide (human); test: ELISA; direct ELISA; CD44v3 peptide or CD44v6 peptide coated at 4 μg/ml in PBS; various concentrations of rhCHI3L1 or rhIL-13Rα2 ECD (control BSA) added, 1 h at RT; detected with anti-CHI3L1 or anti-IL-13Rα2 antibody, absorbance at 450 nm; both purified

| Binder | binding [1] | binding (CD44v6 peptide (human)) |
| --- | --- | --- |
| B1 | binds | – |
| B2 | – | no binding |
